# Results from publication PMC13411936.
# Amino acid sequences for entries named in this document (tags omitted). A change or cut given only in a name is not applied to a line headed by its entry.
# UniProt Q9HZF9: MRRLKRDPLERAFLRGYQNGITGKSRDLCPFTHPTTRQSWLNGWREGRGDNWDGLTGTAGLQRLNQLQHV
# UniProt Q9HXI8: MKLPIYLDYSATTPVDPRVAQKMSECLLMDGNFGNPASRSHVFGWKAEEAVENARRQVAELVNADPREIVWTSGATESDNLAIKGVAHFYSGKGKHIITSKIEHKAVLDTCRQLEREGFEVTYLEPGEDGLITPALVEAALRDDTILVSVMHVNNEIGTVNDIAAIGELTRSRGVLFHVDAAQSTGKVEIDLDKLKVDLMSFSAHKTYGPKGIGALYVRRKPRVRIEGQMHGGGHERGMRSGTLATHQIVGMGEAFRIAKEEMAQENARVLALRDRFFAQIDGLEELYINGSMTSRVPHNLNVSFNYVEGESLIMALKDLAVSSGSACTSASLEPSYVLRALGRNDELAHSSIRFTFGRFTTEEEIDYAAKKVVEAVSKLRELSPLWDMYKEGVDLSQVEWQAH
# UniProt O54439: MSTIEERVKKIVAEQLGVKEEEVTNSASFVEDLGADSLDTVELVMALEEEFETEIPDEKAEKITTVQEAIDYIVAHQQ
# These are yes or no findings as the source states them, for the method shown. In cells and extracts the contact can be indirect. A yes stands for co-enrichment or nearness to the bait. Other partners may have been found.
# B1: Uncharacterized protein PA2503 (protein, UniProt Q9I0X9 1-417)
# chain: MELSPAERQLLLAHRLAVFDGCVVYDAQPPVSAEHVQRLAEGLAGPIPEDLLRLWRTCFGGRLGYDLEVDYDGHRHPFSFSELFYPDSDGYHDLWGWIEHERELAAEAAAEEGRDWNGKLAYLPFGGFEYLERLYVCVEPGPEHGAVIAWSHGLPPAWAGRLHQDSVTRLADDVGGLFRLLSFEQDPFDAENACGVADELLEALDALEAAGEPGKALKGRLEVLLRQRILDWRPALADGSLAAEPRLRQLALAEAAQDGDIDLLQRLRDAGCDFAETLRGRGGVLEACLARGRLEAARWLLDQGVAVHQDSLQIGAAHLDAVLAERLLRLGAISDPNTVLLALQYGDADAARIMARPLLEESPARANALRLALASRAERERSDARRVRSGKMGSNRSPDDYLALAERLERFLAELPG
# B2: GTP cyclohydrolase 1 type 2 homolog (protein, UniProt Q9HVX2 1-252)
# chain: MAIALSTLVEEADRYLDAARIQDYCPNGLQVEGRPQVRRIVSGVTASQALLDAAVEADADVVLVHHGYFWKGENPCVVGMKQRRLKTLLNNDISLLAYHLPLDLHPEVGNNVQLARQLGFEVEGPLEPGNPRSIVLLGSLAEPMQPADFARHVRDALGREPLLVDAGQPIRRIAWCTGGAQGYIDQAIAAGVDAYLTGEVSEQTVHSARENGISFIAAGHHATERYGVQALGDYLGKRFAIEHLFIDCPNPA
# B3: Cell division topological specificity factor (protein, UniProt Q9HYZ5 1-84)
# chain: MSLLDFFRSRKSQNSASIAKERLQIIVAHERGQRAQPDYLPQLQKDLLEVIRKYVPIDQEQIQVELENQGNCSILELNITLPDR
# B4: Probable transcriptional regulator PA2897 (protein, UniProt Q9HZV0 1-479)
# chain: MTNLLLYQRIAQQLAEDIRRGVYQPGERVPSVRKLSTQLNVSHATVLQAYATLEDQGLIRARPQSGFYVHRTPALTAPTPDIARVERPGLVTRSSIINQVLAESRREGVFPLGAAVPHVDYLPVRALHQQLAKVTRFQSPRAFSYMFSPGFEPLRRQVAIRMRDAGVVVDPSQVTITHGCVDAIHMALRVLTRPGDLIATESPSYYGLLQLADVLGLKVIEIPSDPRTGISLEALQLAANQWSIKALVLTARLSNPFGGTIPEDRQKQLLKLTAEHNIGVVEDDIYGELMFDQGQARSLKSHDRDGRVIYCSSFSKTISPGVRIGWIIAERYQEEIRRLQTFTTHSACTVTQMGVAAYLENGGYDRHLRYIRQEYRKNMTAYQLAVQQYFPEGTQMTRPKGGFILWVSLPAKVNTKELHVRALEQGISIAPGLIFSNTEQFNNCLRLTCGIPWNREAERAIMTLGMLAGQLCQEGLIAA
# B5: Phosphoribosylformylglycinamidine cyclo-ligase (protein, UniProt Q9I513 1-353)
# chain: MSSKQPSLSYKDAGVDIDAGEALVERIKGVAKRTARPEVMGGLGGFGALCEIPAGYKQPVLVSGTDGVGTKLRLALNLNKHDSIGQDLVAMCVNDLVVCGAEPLFFLDYYATGKLNVDVAATVVTGIGAGCELAGCSLVGGETAEMPGMYEGEDYDLAGFCVGVVEKAEIIDGSRVQAGDALIALPSSGPHSNGYSLIRKIIEVSGADIAQVQLDGKPLADLLMAPTRIYVKPLLQLIKQTGAVKAMAHITGGGLLDNIPRVLPDNAQAVIDVASWNRPAVFDWLQEQGNVDETEMHRVLNCGVGMVICVAQSDAEKALEVLRAAGEQPWQIGRIETCGADAERVVLNNLKNH
# B6: TPR repeat-containing protein PA4667 (protein, UniProt P42810 1-590)
# chain: MMAPPSQVQGRLSSSMNKSLALLTVTLLLGGCQSLIHKTPDGTPPVEDTAVETKAKPEKYGSFSEDSLYSLLVAELAGQRNRFDIALSNYVVQAQKTRDPGVSERAFRIAEYLGADQEALDTSLLWARSAPDNLDAQRAAAIQLARAGRYEESMVYMEKVLNGQGDTHFDFLALSAAETDPDTRAGLLQSFDHLLKKYPNNGQLLFGKALLLQQDGRPDEALTLLEDNSASRHEVAPLLLRSRLLQSMKRSDEALPLLKAGIKEHPDDKRVRLAYARLLVEQNRLDDAKAEFAGLVQQFPDDDDLRFSLALVCLEAQAWDEARIYLEELVERDSHVDAAHFNLGRLAEEQKDTARALDEYAQVGPGNDFLPAQLRQTDVLLKAGRVDEAAQRLDKARSEQPDYAIQLYLIEAEALSNNDQQEKAWQAIQEGLKQYPEDLNLLYTRSMLAEKRNDLAQMEKDLRFVIAREPDNAMALNALGYTLADRTTRYGEARELILKAHKLNPDDPAILDSMGWINYRQGKLADAERYLRQALQRYPDHEVAAHLGEVLWAQGRQGDARAIWREYLDKQPDSDVLRRTIKRLTGAETP
# B7: 3-demethoxyubiquinol 3-hydroxylase (protein, UniProt Q9I5R6 1-215)
# chain: MSADRHYSPIDRFLLQADSALRTLLPFSGQPARPSPAIVEPDGELSEEDTRHIAGLMRINHTGEVCAQALYQGQSLTAKLPEVREAMEEAAEEEIDHLAWCEQRIRQLGSRPSVLNPIFYGLSFGVGAAAGLVSDRVSLGFVAATEDQVCKHLDEHLAQIPQEDRKSRAILEQMRIDEEQHSSNALAAGGLRFPAPVKLGMSLLAKVMTKSTYRI
# B8: IscR (protein, UniProt Q9HXI7 1-163)
# chain: MRLTTKGRYAVTAMLDLALHAQQGPVSLADISERQGISLSYLEQLFAKLRRGNLVTSVRGPGGGYQLSRHMSGIHVAQVIDAVNESVDATRCQGQGDCHSGDTCLTHHLWCDLSLQIHEFLSGISLADLVSRQEVQEVALRQDERRCSGKTPRLDKIEASAID
# B9: Bifunctional protein HldE (protein, UniProt Q9HUG9 1-474)
# chain: MKLSMPRFDQAPVLVVGDVMLDRYWHGATSRISPEAPVPVVRVEQHEDRPGGAANVALNIAALGAQALLVGVTGRDEAADSLANSLKAAGVDARFQRIDSQPTIVKLRVMSRHQQLLRVDFEEPFRTDAAALAVDVESLLAKVKVLVLSDYGKGALQNHQVLIQAARARNIPVLADPKGKDFAIYRGASLITPNLSEFETIVGRCADEAELVAKGQALMSELDLGALLVTRGEHGMTLLRHGQPALHLPARAREVFDVTGAGDTVISTLAAALAAGEELPSAVGLANLAAGIVVGKLGTAAISAPELRRAVQREQGSERGVLGLEQLLLAIEDARAHGEKIVFTNGCFDILHAGHVTYLEQARAQGDRLIVGVNDDASVTRLKGVGRPINSVDRRMAVLAGLGAVDWVVSFAEDTPERLLEQVRPDVLVKGGDYGVEQVVGAQIVKAYGGEVRVLGLVENSSTTAIVEKIRQKG
# B10: Flavohemoprotein1 (protein, UniProt Q9I0H4 1-393)
# chain: MLSNAQRALIKATVPLLETGGEALITHFYRTMLGEYPEVRPLFNQAHQASGDQPRALANGVLMYARHIDQLQELGPLVAKVVNKHVSLQVLPEHYPIVGTCLLRAIREVLGEQIATDEVLEAWGAAYQQLADLLIEAEESVYAASAQADGGWRGVRRFRVARKQAESEEITSFYLEPVDGQPLLAFQPGQYIGLRLDIDGEEVRRNYSLSAASNGREYRISVKREAGGRVSNYLHDRVAEGDELDLFPPAGDFVLRDSDKPLVLITAGVGITPALAMLQEALPQARPIRFIHCARHGGVHAFRDWIEDVSAQHEQVEHFFCYSEPRAGDSADAEGLLSREKLADWLPQERDLDAYFLGPRPFMAQVKRHLADLGVPSQQCHYEFFGPAAALDA
# B11: 50S ribosomal protein L22 (protein, UniProt Q9HWE0 1-110)
# chain: MEVAAKLSGARISAQKARLVADQIRGKKVGEALNLLAFSSKKAAEIMKKVLESAVANAEHNEGADVDDLKVSTVFVNEGRSLKRIMPRAKGRADRIVKRSCHITVKVADK
# Target: BatR-3xFlag (P. aeruginosa PAO1) (UniProt Q9HZF9)
# Experiment: affinity purification with mass spectrometry; co-immunoprecipitation of BatR-3xFlag (bait) with PAO1 proteins, mass spectrometry of the precipitate; protocol in S5 Data
row,Molecule,binding
1,Cysteine desulfurase IscS (from UniProt Q9HXI8 1-404),binds
2,Acyl carrier protein 1 (from UniProt O54439 1-78),binds
3,B1,binds
4,B2,binds
5,B3,binds
6,B4,binds
7,B5,binds
8,B6,binds
9,B7,binds
10,B8,binds
11,B9,binds
12,B10,binds
13,B11,binds
